Assay results from PMC12040169 (PLOS Biology, 2025).
The other results are listed elsewhere or left out.

System: T1, CTL2-GFP (C. trachomatis L2/434/Bu, GFP-expressing)
T1 construct: L2/434/Bu, GFP-expressing
Parameters: species or system HeLa; Intracellular C. trachomatis growth in HeLa cells, bulk GFP fluorescence relative to DMSO
Conditions: bulk GFP, single well; 28.5 h, 10 µM; inhibitor

In order of rising “% of control remaining” value:
1. Cc1n[nH]cc1CN(C)c1cc([C@H]2C[C@@H](N)C2)nc(C2CC2)n1 [CBK307544]  61.5354%
2. O=C(c1ccco1)N1CCN(c2ccc(/C=C/c3ccccc3)cn2)CC1 [CBK037701]  71.0727%
3. Cn1nnnc1Sc1cc(=O)n(C)c(=O)n1C [CBK011072]  72.1019%
4. N#Cc1cccc(CSc2nnc(Nc3ccccc3)n2-c2ccccc2)c1 [CBK266040]  86.0345%
5. Cc1nn(CC(=O)NCc2ccc(C(=O)O)cc2)c(C)c1[N+](=O)[O-] [CBK268967]  92.7429%
6. COc1ccc(CCNC(=O)N(CCC#N)C2CCCCC2)cc1 [CBK156375]  95.9259%
7. CCn1c2cc(C)sc2c2cnn(CC(=O)N3CCCC3)c(=O)c21 [CBK284168]  97.1674%
8. CCc1cc(Br)ccc1S(=O)(=O)NC1CCOC1=O (stereo not drawn) [CBK044385]  98.1873%
9. Cc1ccc(-c2ncc(OCc3cccs3)nc2N)cc1C [CBK145146]  98.4302%
10. COC(=O)CN1N=C(C(C)(C)C)Cn2c(cc3sccc32)C1=O [CBK284177]  98.4324%
11. COC(=O)Nc1ccc(S(=O)(=O)Oc2ccc(C)cc2-n2nc3ccccc3n2)cc1 [CBK262183]  98.5885%
12. O=c1c2ccccc2n2c(=O)[nH]nc2n1-c1ccccc1 [CBK288352]  99.8629%
13. O=C(O)/C=C/c1cccc(NS(=O)(=O)c2ccc(C(=O)O)cc2)c1 [CBK262262]  100%
14. Cc1ccc(SCCNC(=O)COc2ccc(Cl)cc2Cl)cc1 [CBK263976]  100%
15. CC(=O)N1CCC(C(=O)NC(=O)NCCc2ccccc2)CC1 [CBK034851]  100%
16. CC(C)NC(=O)NC[C@H]1C[C@@H]2CC[N@]1C[C@@H]2CN1CCN(c2ccccn2)CC1 [CBK289112]  102.374%
17. COc1ccc2c(c1)nc1n2CCC1O (stereo not drawn) [CBK115449]  105.64%
18. Cn1cc(CC(=O)Nc2nc3c(cc2C#N)CCCC3)cn1 [CBK306436]  106.811%
19. CCOC(=O)N1CCC(NS(=O)(=O)c2cccc3cccnc23)CC1 [CBK045453]  107.467%
20. O=C(N/N=C\c1ccc(-c2ccc(Cl)c(Cl)c2)o1)C1COc2cc3ccccc3cc2O1 (stereo not drawn) [CBK262834]  114.032%
21. CCCn1c(C)cc2cc(NC(=O)C(C)n3ccnc3)ccc21 (stereo not drawn) [CBK281547]  114.114%
22. COc1cc(C2C(C(=O)c3cccs3)=C(O)C(=O)N2Cc2cccnc2)cc(OC)c1OC (stereo not drawn) [CBK264874]  114.603%
23. O=C(Nc1ccc2c(c1)OCO2)C1CCN(S(=O)(=O)c2ccc(Oc3ccccc3)cc2)CC1 [CBK269648]  116.953%
24. Nc1cccc(-c2cn([C@H]3C[C@@H](O)[C@@H](CO)O3)c(=O)[nH]c2=O)c1 [CBK201262]  119.567%
25. COc1ccccc1NC(=O)c1c(NC(=O)c2cc([N+](=O)[O-])ccc2Cl)sc2c1CCCC2 [CBK263827]  120.418%
26. CC(Sc1nc2ccc(F)cc2c(=O)[nH]1)C(=O)N1CCOCC1 (stereo not drawn) [CBK305958]  120.48%
27. COc1ccc(-c2cncc(N(C)CCN(C)C)n2)cc1 [CBK037832]  123.97%
28. COc1ccc2[nH]cc(CCNC(=O)CCC(=O)O)c2c1 [CBK116605]  125.505%
29. CSc1ccc(-n2ncc(-c3ccc(F)cc3F)n2)cc1 [CBK112728]  125.777%
30. Cc1ccc2nc(-c3ccccc3)c(CC(=O)O)c(C(=O)O)c2c1 [CBK265128]  126.341%
31. O=S(=O)(c1ccccc1)c1ccc(N2CCNCC2)cc1 [CBK018452]  126.381%
32. CCOC(=O)N1CCN(c2cc3[nH]c(=S)[nH]c3cc2F)CC1 [CBK288444]  126.89%
33. Cc1cc(C)n(CC(=O)N2CCNC(=O)C2c2ccccc2Cl)n1 (stereo not drawn) [CBK306421]  127.1%
34. C=CCn1c(-c2sc(NC(=O)c3[nH]c4c(c3C)C(=O)CC(C)(C)C4)nc2C)n[nH]c1=S [CBK297757]  128.767%
35. CC(C)NC(=O)Nc1ccc(C(=O)N(CCC#N)Cc2ccco2)cc1 [CBK305999]  129.503%
36. Cc1cc(Br)ccc1C(=O)Nc1ccc2cc[nH]c2c1 [CBK160046]  129.688%
37. CS(=O)(=O)NC1CCN(CCc2ccc(F)c(F)c2)C1 (stereo not drawn) [CBK305078]  132.401%
38. Cn1c(=O)n(C)c2cc(CNc3ccc(N4CCOCC4)c(C(=O)O)c3)ccc21 [CBK269463]  134.226%
39. Cc1c(Cl)cccc1S(=O)(=O)Nc1nc(-c2cccc([N+](=O)[O-])c2)cs1 [CBK000994]  136.141%
40. COc1ccc(-c2nc(O)cc(C(F)(F)F)n2)cc1 [CBK003515]  136.667%
41. CN1CCCN(CC(CC(=O)NCc2ccccc2)C(=O)O)CC1 (stereo not drawn) [CBK286791]  139.358%
42. Nc1cc(=O)[nH]c(=O)n1CCc1c[nH]c2ccccc12 [CBK288190]  140.755%
43. c1coc(-c2ccc3c(c2)COC2(CCN(CCc4ccc5c(c4)OCO5)CC2)O3)c1 [CBK061057]  146.04%
44. Cc1cc(C(=O)CSc2ccc(Cl)nn2)c(C)n1C1CC1 [CBK305512]  147.861%
45. CC(=O)Nc1ccc(S(=O)(=O)Nc2ccc(C(=O)N3CCN(C)CC3)cc2)cc1 [CBK050406]  148.281%
46. COc1cccc2c1cc(C(=O)NCc1cc(C3CC3)[nH]n1)n2C [CBK283282]  152.463%
47. COc1cccc(NC(=O)Cn2cc(OC)c(=O)cc2CN2CCOCC2)c1 [CBK294430]  154.679%
48. CCNc1nccnc1-c1cccc(O)c1 [CBK088593]  161.651%
49. COc1ccc(Cl)cc1Nc1ncnc(N)n1 [CBK288195]  178.505%
50. CCc1cc(C(=O)OC)c(NC(=O)CC2NCCNC2=O)s1 (stereo not drawn) [CBK266990]  179.396%
51. CN(C)C(=O)COc1cccc(Nc2nc(Br)cn3ccnc23)c1 [CBK037989]  233.62%
